Among the data in article PMC7157520 are binding values, retold here.

Sequences of proteins named here, by UniProt entry; tags and fusion partners are left off. A change or cut given only in a name is not applied to a line headed by its entry. A line that says so, or that is headed by a name, gives the form on record, which may keep a tag or linker.
UniProt P21827: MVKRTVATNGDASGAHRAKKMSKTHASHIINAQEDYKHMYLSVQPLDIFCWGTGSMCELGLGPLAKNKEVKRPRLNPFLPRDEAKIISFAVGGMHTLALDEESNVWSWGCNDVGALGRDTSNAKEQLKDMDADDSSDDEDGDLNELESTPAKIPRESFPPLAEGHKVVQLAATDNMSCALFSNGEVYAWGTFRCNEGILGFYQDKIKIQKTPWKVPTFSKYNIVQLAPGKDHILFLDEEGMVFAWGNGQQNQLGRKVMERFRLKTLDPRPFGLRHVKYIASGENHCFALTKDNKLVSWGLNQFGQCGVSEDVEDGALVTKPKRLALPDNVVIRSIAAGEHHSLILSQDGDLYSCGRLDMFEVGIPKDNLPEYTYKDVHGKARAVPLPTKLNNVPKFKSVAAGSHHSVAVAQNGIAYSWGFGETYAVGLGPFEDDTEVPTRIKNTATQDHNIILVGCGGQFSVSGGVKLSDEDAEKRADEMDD
UniProt P11745: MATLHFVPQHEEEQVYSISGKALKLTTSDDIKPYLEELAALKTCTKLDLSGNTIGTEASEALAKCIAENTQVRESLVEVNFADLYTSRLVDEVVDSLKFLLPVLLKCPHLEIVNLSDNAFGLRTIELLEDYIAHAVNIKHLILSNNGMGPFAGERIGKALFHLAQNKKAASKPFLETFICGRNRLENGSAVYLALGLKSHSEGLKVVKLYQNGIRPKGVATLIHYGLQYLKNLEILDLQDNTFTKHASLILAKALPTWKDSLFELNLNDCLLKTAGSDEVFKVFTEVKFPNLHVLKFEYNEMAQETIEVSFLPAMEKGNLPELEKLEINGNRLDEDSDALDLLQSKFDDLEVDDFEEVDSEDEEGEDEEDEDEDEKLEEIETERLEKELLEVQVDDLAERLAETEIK
Strep-tagged RNA1-1 (P11745, form named): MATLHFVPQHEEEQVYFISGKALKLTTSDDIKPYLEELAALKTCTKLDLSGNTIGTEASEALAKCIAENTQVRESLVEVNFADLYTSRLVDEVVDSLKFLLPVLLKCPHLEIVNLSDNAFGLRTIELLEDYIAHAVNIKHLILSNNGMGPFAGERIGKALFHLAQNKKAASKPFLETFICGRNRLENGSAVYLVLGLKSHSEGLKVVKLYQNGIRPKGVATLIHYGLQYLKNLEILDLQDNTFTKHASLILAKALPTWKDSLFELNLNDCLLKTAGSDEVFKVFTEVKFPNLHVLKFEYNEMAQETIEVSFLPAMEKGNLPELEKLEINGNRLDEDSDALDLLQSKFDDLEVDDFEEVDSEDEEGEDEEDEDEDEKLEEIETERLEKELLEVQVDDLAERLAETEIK

No constants are given. Whether binding was seen depends on the method and setting. In cells and extracts the contact can be indirect. Where a sequence is shown, tags or fusion partners need not be part of it.

In this experiment the target is T1, FLAG-LegG1 (L. pneumophila strain Philadelphia-1) (UniProt Q5ZU32).
T1 sequence: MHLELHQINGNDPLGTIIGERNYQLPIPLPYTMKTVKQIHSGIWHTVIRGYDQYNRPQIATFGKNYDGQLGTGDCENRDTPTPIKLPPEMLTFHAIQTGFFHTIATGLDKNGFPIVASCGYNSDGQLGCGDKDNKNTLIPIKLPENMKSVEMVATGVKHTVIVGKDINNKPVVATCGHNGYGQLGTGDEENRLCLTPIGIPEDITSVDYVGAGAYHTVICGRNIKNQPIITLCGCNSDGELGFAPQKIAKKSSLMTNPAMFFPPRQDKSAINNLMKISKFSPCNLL
Description: co-IP.

With Strep-PRP20 (from UniProt P21827 1-482), the binding result is “no binding”.

For “Strep-tagged RNA1-1 (from UniProt P11745 1-407)”, the binding entry is listed as “no binding”.
